PubChem BioAssay AID1671195, Yale University | 2021

- Screen: 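Knockdowns that increase or decrease uptake of fluorescent LDL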 (primary screen)
- Cells: human Huh7 hepatoma cells
- Reagents: siRNA pool against human genes, 18 nM
- Duration: about 2 to 2.5 days of knockdown, then 8 h LDL uptake
- Challenge: DiI-labelled LDL at 30 µg/ml for 8 h, in lipoprotein-deficient serum medium
- Detection: 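Per-cell DiI-LDL intensity by automated imaging; well means scaled to the plate median and given as a robust z-score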
- Reading the numbers: robust z-score: higher = more LDL uptake after knockdown
- Rule for the call: 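a gene counts as active if at least two replicate z-scores exceed ±2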
In all, the deposit lists about 22,000 reagents; this is a part drawn at random. About 1,510 of all reagents (6.9%) were called active. 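Active includes knockdowns raising or lowering LDL uptake; positive z-scores mean more uptake, negative mean less.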 Unmarked entries are inactive.

What did the screen give for SDHAF3 [SID442889181]?
robust z-score, replicate 1: 1.19; robust z-score, replicate 2: 0.587; robust z-score, replicate 3: 0.0257

How did the screen score ZNF891 [SID442897063]?
robust z-score, replicate 1: -0.44; robust z-score, replicate 2: -0.186; robust z-score, replicate 3: -0.4

For GZF1 [SID442883941], what was measured?
robust z-score, replicate 1: 2.23 (active); robust z-score, replicate 2: 1.64; robust z-score, replicate 3: 2.54

With EIF3L [SID442893341], what was measured?
robust z-score, replicate 1: -0.884; robust z-score, replicate 2: 0.703; robust z-score, replicate 3: 0.367

What did the screen give for DKK1 [SID442885369]?
robust z-score, replicate 1: 0.993; robust z-score, replicate 2: 2.64; robust z-score, replicate 3: 0.98

What is on record for ERCC6L [SID442895139]?
robust z-score, replicate 1: 0.016; robust z-score, replicate 2: -0.457; robust z-score, replicate 3: 0.0246

How did the screen score TCIRG1 [SID442890527]?
robust z-score, replicate 1: 0.243; robust z-score, replicate 2: 0.958; robust z-score, replicate 3: 0.0148

For CNKSR1 [SID442891561], what was measured?
robust z-score, replicate 1: 0.551; robust z-score, replicate 2: 0.00817; robust z-score, replicate 3: 0.255

For LOC440490 (retired record) [SID442897745], how do the results read?
robust z-score, replicate 1: -0.275; robust z-score, replicate 2: -0.698; robust z-score, replicate 3: -0.286

How did the screen score UBXN6 [SID442883437]?
robust z-score, replicate 1: 3.41 (active); robust z-score, replicate 2: 2.47; robust z-score, replicate 3: 2.84

What is on record for CNBP [SID442891979]?
robust z-score, replicate 1: 0.0203; robust z-score, replicate 2: 0.509; robust z-score, replicate 3: 0.14

What did the screen give for MAGOHB [SID442900781]?
robust z-score, replicate 1: -1.55; robust z-score, replicate 2: 0.88; robust z-score, replicate 3: -1.75

How did the screen score STIL [SID442897944]?
robust z-score, replicate 1: 0.259; robust z-score, replicate 2: -0.932; robust z-score, replicate 3: -0.655

With LOC399713 (retired record) [SID442893078], what was measured?
robust z-score, replicate 1: 0.353; robust z-score, replicate 2: -0.00267; robust z-score, replicate 3: -0.0782

For LYRM4 [SID442897405], what does the deposit list?
robust z-score, replicate 1: 0.0886; robust z-score, replicate 2: -0.372; robust z-score, replicate 3: -0.862

Which result is listed for MIX23 [SID442884325]?
robust z-score, replicate 1: -2.18 (active); robust z-score, replicate 2: -2.1; robust z-score, replicate 3: -1.57

What did the screen give for GLI2 [SID442896490]?
robust z-score, replicate 1: -0.595; robust z-score, replicate 2: -0.0316; robust z-score, replicate 3: -0.207

Which result is listed for ICE1 [SID442896387]?
robust z-score, replicate 1: -0.327; robust z-score, replicate 2: -0.329; robust z-score, replicate 3: -0.145

With HES2 [SID442899881], what does the deposit list?
robust z-score, replicate 1: -0.559; robust z-score, replicate 2: -0.565; robust z-score, replicate 3: -0.921

With BANK1 [SID442899352], what does the deposit list?
robust z-score, replicate 1: -0.684; robust z-score, replicate 2: -0.537; robust z-score, replicate 3: -0.603

What is on record for LOC283299 [SID442893250]?
robust z-score, replicate 1: 0.0301; robust z-score, replicate 2: -0.036; robust z-score, replicate 3: 0.222

How did the screen score LOC440206 (retired record) [SID442898107]?
robust z-score, replicate 1: -0.601; robust z-score, replicate 2: -0.748; robust z-score, replicate 3: -0.0348

How did the screen score FBXL3 [SID442899466]?
robust z-score, replicate 1: 0.504; robust z-score, replicate 2: -0.722; robust z-score, replicate 3: -1.65

What is on record for KLHL15 [SID442886651]?
robust z-score, replicate 1: 0.853; robust z-score, replicate 2: 0.781; robust z-score, replicate 3: 1.66

An excerpt from the list above, for reference:
MIX23 [SID442884325] | robust z-score, replicate 1: -2.18 (active); robust z-score, replicate 2: -2.1; robust z-score, replicate 3: -1.57
GLI2 [SID442896490] | robust z-score, replicate 1: -0.595; robust z-score, replicate 2: -0.0316; robust z-score, replicate 3: -0.207
